Drawing on PMC7819943, “Rice protein-binding microarrays: a tool to detect cis-acting elements near promoter regions in rice”, this text covers binding signal for 42 sequences.

The other results are listed elsewhere or left out.

For the test, the target named is T1, OsSMF1 (Oryza sativa, UniProt Q6ZLB0 1-436).
T1 sequence: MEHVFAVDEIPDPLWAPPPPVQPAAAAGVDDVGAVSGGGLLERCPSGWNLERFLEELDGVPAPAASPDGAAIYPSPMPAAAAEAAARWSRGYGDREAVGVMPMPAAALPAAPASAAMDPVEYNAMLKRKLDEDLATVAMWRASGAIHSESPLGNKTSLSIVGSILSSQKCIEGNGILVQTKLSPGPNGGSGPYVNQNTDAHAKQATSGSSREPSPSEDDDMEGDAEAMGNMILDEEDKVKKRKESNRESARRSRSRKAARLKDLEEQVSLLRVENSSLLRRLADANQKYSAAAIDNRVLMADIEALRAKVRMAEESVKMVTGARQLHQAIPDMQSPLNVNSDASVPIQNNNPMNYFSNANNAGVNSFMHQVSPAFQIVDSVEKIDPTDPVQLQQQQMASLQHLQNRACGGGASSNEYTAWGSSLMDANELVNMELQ
In words: protein-binding microarray (RPBM); PBS, 2% BSA, 51.3 ng/ul salmon testes DNA, 50 uM zinc acetate, 200 nM TF, 25 C, 1 h; high values mean tight binding. The note with it: protein: recombinant; tags: N-terminal polyhistidine and DsRed monomer fusion (pET32a); chain copies: 2; label: CyDye5-dUTP incorporated in the synthesized complementary strand; 3' TTTTT single-stranded linker to array surface; dsDNA, one strand shown. Put shortly:
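Polyhistidine-tagged DsRed fusions of transcription factors, joined at the N-terminus, were expressed in E. coli BL21-CodonPlus and isolated on Ni–NTA. They were incubated at 200 nM for 1 h at 25 °C on a custom Agilent array, double-stranded and BSA-blocked, in PBS with 2% BSA, salmon testes DNA and 50 µM zinc acetate. The binding signal is per-feature fluorescence intensity (arbitrary units) read on an Axon 4000B scanner after washing.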
With “GCCGCCACCGCCACCGCCACCGCCACGTCCAGCCTCCGGTCGGAGTCACCTAGTGCAG”, the binding signal was 6740 fluorescence intensity (a.u.).

Regarding “ACGCCGTTGTCCACTACCTCTGTGTCATCCCCAATGCGCCCGGAGTCACCTAGTGCAG”, the binding signal is 5340 fluorescence intensity (a.u.). As for “GAAGAGAACGCCACATAGACGTGGCACGCTGACATGTGGGCGGAGTCACCTAGTGCAG”, the figure is 8060 fluorescence intensity (a.u.).

Regarding “TCCGTCCCAAAATATAAGAAGTTTTAGAATTGGATACCGTCGGAGTCACCTAGTGCAG”, the binding signal is 30600 fluorescence intensity (a.u.). In the case of “AAATAGTAGAAAACGATGCTGAATTGCTGATGTGTTTGTCCGGAGTCACCTAGTGCAG”, the binding signal is 5930 fluorescence intensity (a.u.). As for “AATCCCTGAACCCGACCCGGACCCAAACAAGGCTACAAACCGGAGTCACCTAGTGCAG”, the binding signal is 3310 fluorescence intensity (a.u.).

For the sequence “TTTCCCTTATAGGTTCATTTAGATTTAAAAGATAAGATTTCGGAGTCACCTAGTGCAG”, the binding signal is 19400 fluorescence intensity (a.u.).

On to “TTGTCGTCCAATTGGGAGAGTACTGAGTACGTGTACTTCGCGGAGTCACCTAGTGCAG”, for which the binding signal was 6550 fluorescence intensity (a.u.). As for “ATCATCCCAAAATCATCGTCAAGTCGTCGCCTCCGGATTGCGGAGTCACCTAGTGCAG”, the figure is 3280 fluorescence intensity (a.u.). As for “CTCATCCGAGCCGTTCATGACGTGGGCCCCGCAAAAGAAGCGGAGTCACCTAGTGCAG”, the figure is 3480 fluorescence intensity (a.u.). As to “ATCCGCATTAACATATTTAATCACACGTGTTATCTCAAACCGGAGTCACCTAGTGCAG”, the binding signal was 9920 fluorescence intensity (a.u.). As for “CCCACCTCGCGCGGCACATGCGCGACGTGTTCGCCATTGGCGGAGTCACCTAGTGCAG”, the figure is 3550 fluorescence intensity (a.u.); as for “TGATAATGTGATATCTGGAATAGTGTAGATGATGGTATAGCGGAGTCACCTAGTGCAG”, 27600 fluorescence intensity (a.u.); as for “CTCGTTTTCTCCCAAAATCCGCGAGGTTTTGTTTTGTAGGCGGAGTCACCTAGTGCAG”, 15600 fluorescence intensity (a.u.).

As to “TCCTGCCCAAACAGCATACTGATTGTTGAGGTAGGTAAACCGGAGTCACCTAGTGCAG”, the binding signal was 7160 fluorescence intensity (a.u.). Turning to “ACTCCTTGCATAGCTTGAGTCTTCATTTCCAGGTCATGGGCGGAGTCACCTAGTGCAG”, the binding signal was 3610 fluorescence intensity (a.u.). For the sequence “AACACCAACACACCCTCGGGCCACGACTTCGACTACAACGCGGAGTCACCTAGTGCAG”, the binding signal was 3290 fluorescence intensity (a.u.). To “ATGGGGTGGATGCGTCAGAATTTACATAGGCACGGAACGTCGGAGTCACCTAGTGCAG” belongs 5800 fluorescence intensity (a.u.); to “TAATTACTCCATTGGCTTGTCAGCCGACCGGCTCATCATACGGAGTCACCTAGTGCAG”, 3460 fluorescence intensity (a.u.); to “GGATCTCTCCTCACTCCTCCGCCACCTCAAAGCTCTCCGTCGGAGTCACCTAGTGCAG”, 3340 fluorescence intensity (a.u.). “CACTGACTCACACCCCGTCACTCCCCTCTTCTCCTCACCTCGGAGTCACCTAGTGCAG”: the binding signal was 7020 fluorescence intensity (a.u.).

On to “TGCCGGTGTGGCTTGCTGAGTACTGTGGTTGTACTCATTCCGGAGTCACCTAGTGCAG”, for which the binding signal is 3270 fluorescence intensity (a.u.).

Turning to “ATATATCATACCTTGGTACATTTGTCAGCCTCACGGCAGTCGGAGTCACCTAGTGCAG”, the binding signal was 3210 fluorescence intensity (a.u.). To “GGTGGTGGTGGTGGAGAGAGAGAGGAGTGCGTCGCCGACGCGGAGTCACCTAGTGCAG” belongs 3460 fluorescence intensity (a.u.); to “GAGAGATCGTACACGAGTCATTTCAACTCGGACAATTTGCCGGAGTCACCTAGTGCAG”, 3180 fluorescence intensity (a.u.). Regarding “ATTAGTATTGGCATAGAATAAACAATTGTCATATCACTTCCGGAGTCACCTAGTGCAG”, the binding signal is 3250 fluorescence intensity (a.u.). For the sequence “TGCAGTTGGAGGTTTTCCAAGCTCGGGCGACATCATCCTGCGGAGTCACCTAGTGCAG”, the binding signal is 3520 fluorescence intensity (a.u.). Take “TGTGGCTTAATTAGTTCAAGTAGCAGCTCCTCCTGCAGTCCGGAGTCACCTAGTGCAG”: the binding signal is 4810 fluorescence intensity (a.u.). As for “GCGAGTTAGGAGGGCGGCGGCGGGGCCTTCTCCTGTGGTGCGGAGTCACCTAGTGCAG”, the figure is 3190 fluorescence intensity (a.u.); as for “CGAAGCAGGTCAACACATTCCACACGTGTCAAGGAATGTACGGAGTCACCTAGTGCAG”, 4590 fluorescence intensity (a.u.).

As for “AGGCGAGCGAGACGGCGGCGGGCGGGCGGGGCGGGCGACGCGGAGTCACCTAGTGCAG”, the binding signal was 3470 fluorescence intensity (a.u.). For the sequence “TCGCTTACAATCTCAGTAGTGTCAGTAGTGTGATAGAGCACGGAGTCACCTAGTGCAG”, the binding signal is 5320 fluorescence intensity (a.u.).

Take “TGGGGTTGGTAAACGACGTTGACGTGGCACCCCTGCCCCACGGAGTCACCTAGTGCAG”: the binding signal was 14000 fluorescence intensity (a.u.). To “TGGGCTATGGTGCCTTCGGTCCAGCACGGCACGGCCCGAGCGGAGTCACCTAGTGCAG” belongs 3190 fluorescence intensity (a.u.).

In the case of “GTTTGACACTTTTAGTACGTGTTTGACCATTTGTTTTATTCGGAGTCACCTAGTGCAG”, the binding signal was 4180 fluorescence intensity (a.u.).

Consider “CCCCAATCCTCGCATGCCAACTCACCTGTGTTGCTTTTGCCGGAGTCACCTAGTGCAG”, for which the binding signal is 7550 fluorescence intensity (a.u.). For the sequence “TTTAACCACATCAGTACAACCCAAAACTTCTTTGAAAGTACGGAGTCACCTAGTGCAG”, the binding signal is 3210 fluorescence intensity (a.u.). With “AAAATTACAGTGTAATTACATCATAACTTACGTGTAATTACGGAGTCACCTAGTGCAG”, the binding signal is 6090 fluorescence intensity (a.u.). To “CCGGCATGCTGGTCAGCATCGGAAAACTTCCCCTTCAAGACGGAGTCACCTAGTGCAG” belongs 3510 fluorescence intensity (a.u.). “CACCAGGTGCTCGGCGGCGCACACGTGGACGCGGGTGGCCCGGAGTCACCTAGTGCAG”: the binding signal was 12200 fluorescence intensity (a.u.). For “CTAGCCGCACGATCAGCCACGTGGCGGAGATCTAACGGCCCGGAGTCACCTAGTGCAG”, the binding signal is 27100 fluorescence intensity (a.u.).

Consider “CCTCCTTGCTCACAGTCACAGATGGGAAGAGAGGAATTGACGGAGTCACCTAGTGCAG”, for which the binding signal was 4900 fluorescence intensity (a.u.).
